These are yes or no findings as the source states them, for the method shown. Some binding calls cover weakened binding; strength is not graded here.
Molecular target: SMAR1 protein (UniProt Q8VBU8)
Assay: ITC; MicroCal iTC200, room temperature; peptides with SMAR1 protein; both purified

Protein sequences, listed by entry. Tags and fused reporters are not part of them.
UniProt Q8VBU8: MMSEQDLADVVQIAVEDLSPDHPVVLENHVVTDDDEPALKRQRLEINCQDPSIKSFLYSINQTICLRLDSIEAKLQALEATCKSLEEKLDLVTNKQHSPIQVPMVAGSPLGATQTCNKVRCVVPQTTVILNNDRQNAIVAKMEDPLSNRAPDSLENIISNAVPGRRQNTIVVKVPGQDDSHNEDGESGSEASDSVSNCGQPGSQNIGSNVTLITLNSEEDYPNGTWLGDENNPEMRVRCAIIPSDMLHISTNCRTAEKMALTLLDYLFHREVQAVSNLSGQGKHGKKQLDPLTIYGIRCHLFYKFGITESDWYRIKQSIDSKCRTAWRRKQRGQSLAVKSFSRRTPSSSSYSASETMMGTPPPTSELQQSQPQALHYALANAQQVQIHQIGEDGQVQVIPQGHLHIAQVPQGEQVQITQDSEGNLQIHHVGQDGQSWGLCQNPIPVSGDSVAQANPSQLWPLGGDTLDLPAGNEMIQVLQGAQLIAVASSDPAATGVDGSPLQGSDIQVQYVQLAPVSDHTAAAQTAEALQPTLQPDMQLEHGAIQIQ

Binder	binding
ATATVNAIRGSVTPAVSQFN [AT-01C]	binds
NAIRGSVTPAVSQFN [AT-01D]	binds
